Measured values taken from PubChem BioAssay AID1671190 (National Center for Advancing Translational Sciences (NCATS), 2021).
Among all 580,000 compounds or so, about 6,100 (1.1%) were called active. The inconclusive results got no clear call from the source; some entries with a clear call stand among them for comparison. The call rests on the fitted dose curve; in most records, active means well fitted inhibition curve with a large enough effect; inconclusive means small, poorly fitted or top-dose-only effect, or another doubt; inactive means no such curve, though single readings can be large or run the other way. Where the call is inconclusive, the potency comes from a doubtful curve fit.

By UniProt entry, the sequences of proteins in these tests, tags left out. Where a name states a change or a piece, a line headed by the entry shows the natural chain unless it says otherwise.
UniProt P18054: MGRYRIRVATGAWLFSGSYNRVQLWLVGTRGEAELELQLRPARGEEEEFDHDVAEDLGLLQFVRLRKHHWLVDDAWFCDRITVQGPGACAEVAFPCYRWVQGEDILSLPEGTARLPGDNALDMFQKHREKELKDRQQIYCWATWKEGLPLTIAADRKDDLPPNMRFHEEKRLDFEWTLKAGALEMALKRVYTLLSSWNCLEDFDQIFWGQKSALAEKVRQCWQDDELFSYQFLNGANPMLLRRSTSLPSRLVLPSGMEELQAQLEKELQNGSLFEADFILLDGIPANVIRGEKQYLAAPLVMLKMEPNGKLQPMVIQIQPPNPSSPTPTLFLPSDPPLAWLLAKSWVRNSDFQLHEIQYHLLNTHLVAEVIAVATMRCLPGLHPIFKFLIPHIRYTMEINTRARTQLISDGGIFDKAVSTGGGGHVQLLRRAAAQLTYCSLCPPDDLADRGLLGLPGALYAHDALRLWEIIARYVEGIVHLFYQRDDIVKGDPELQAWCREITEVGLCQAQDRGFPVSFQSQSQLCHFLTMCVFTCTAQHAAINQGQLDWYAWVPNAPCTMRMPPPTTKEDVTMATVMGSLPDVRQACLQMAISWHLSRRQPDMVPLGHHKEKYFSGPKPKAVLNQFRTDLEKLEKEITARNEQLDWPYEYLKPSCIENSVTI

target: Polyunsaturated fatty acid lipoxygenase ALOX12 (Homo sapiens) (UniProt P18054); assay: Primary qHTS assay for inhibitors of human arachidonate 12S-lipoxygenase (ALOX12): Round 2; conditions: purified 12hLO, xylenol orange hydroperoxide absorbance; series mostly up to 108 µM
Method in brief: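 Hydroperoxide product was detected by ferrous iron/xylenol orange as the 573 to 405 nm absorbance ratio. Arachidonic acid at 40 uM (final) was turned over for 30 min at room temperature by 150 nM human 12hLO, pH 7.0 Hepes buffer, after 15 min compound preincubation.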
Potency means the concentration at half of the fitted maximal effect.

SMILES | Potency
O=C(NCc1cccc(F)c1)c1ccc(NC(=O)c2nsc3ccccc23)cc1 | inactive
O=C1Cc2cc(C(=O)CSc3nnc(-c4ccccc4Cl)o3)c(Cl)cc2N1 | inconclusive: 28.2 µM [inhibitor, single point]
O=C(COc1cccc2c1CCN(Cc1ccc(Br)cc1)C2=O)NCc1ccco1 | inactive
CC(=O)c1ccc(NC(=O)CN2CCN(c3ncccn3)CC2)cc1 | inconclusive: 0.708 µM [inhibitor, full curve, poor fit]
COc1ccc(NC(=O)COC(=O)c2n[nH]c3ccccc23)c(OC)c1 | inconclusive: 22.4 µM [inhibitor, single point]
O=C(N/N=C/c1ccccc1F)C1CC1 | inconclusive: 7.94 µM [inhibitor, single point]
CCOc1ccc(-n2c(CCc3ccccc3)n[nH]c2=S)cc1 | inconclusive: 44.7 µM [inhibitor, partial curve]
O=C1CCN(C(=O)c2cc3ccccc3[nH]2)CCCC(CO)CCN1 (stereo unspecified) | inactive
COCCCNC(=S)N1CCCN(c2nc3cc(C)ccc3cc2C#N)CC1 | inactive
CCOc1ccc(OCCOCCN2CCOCC2)cc1 | inconclusive: 0.355 µM [inhibitor, full curve]
O=c1c2cn[nH]c2nc(SCc2c(F)cccc2F)n1-c1ccc(Cl)cc1 | inconclusive: 89.1 µM [inhibitor, partial curve, poor fit]
CC(C)(CNc1nc(-c2ccccc2)nc2ccccc12)N1CCOCC1 | inactive
CCCCN(CC)CCCNC(=O)Cn1ncc2c([nH]c3ccc(C)cc32)c1=O | inconclusive: 89.1 µM [inhibitor, partial curve, poor fit]
COc1ccc(NC(=O)N2CC(C(=O)N(C)C)C3(CCOCC3)C2)c(OC)c1 (stereo unspecified) | inactive
CC(C)Cc1nc(NCC2CCCO2)c(C#N)c2c1CCCC2 (stereo unspecified) | inactive
CCCn1c(=O)c2sc(N3CCCC3)nc2n(CC(=O)NC2CCCCC2)c1=O | inconclusive: 126 µM [inhibitor, single point]
NC(=O)CSc1nc2ccccc2c(=O)n1-c1ccccc1 | inconclusive: 1.26 µM [inhibitor, full curve, poor fit]
NC(=O)[C@H](Cc1cc2ccccc2s1)NC(=O)[C@@H]1CC2(CC(c3cccc(NC(=O)[C@@H]4CCC(=O)N4)c3)=NO2)CN1C(=O)/C=C/Sc1ccccc1 (stereo partly specified) | inconclusive: 1.12 µM [inhibitor, full curve, poor fit]
O=C(Cc1ccc(F)cc1)N1CCC2(CC1)CN(Cc1ccccc1)CC2CO (stereo unspecified) | inactive
CCOc1cccc(C(=O)Nc2nc3c(s2)CC(C(C)(C)C)CC3)c1 (stereo unspecified) | inconclusive: 56.2 µM [inhibitor, partial curve, poor fit]
Cc1ccc(-n2cc(-c3ccc([N+](=O)[O-])cc3)[nH]c2=S)c(C)c1 | inconclusive: 25.1 µM [inhibitor, partial curve]
Cn1ncc2c(N3CCN(c4ccccc4)CC3)nc(N3CCOCC3)nc21 | inconclusive: 50.1 µM [inhibitor, single point]

Another view of some results above:
CCOc1ccc(OCCOCCN2CCOCC2)cc1
  Potency: inconclusive: 0.355 µM [inhibitor, full curve]
O=c1c2cn[nH]c2nc(SCc2c(F)cccc2F)n1-c1ccc(Cl)cc1
  Potency: inconclusive: 89.1 µM [inhibitor, partial curve, poor fit]
CC(C)(CNc1nc(-c2ccccc2)nc2ccccc12)N1CCOCC1
  Potency: inactive
CCCCN(CC)CCCNC(=O)Cn1ncc2c([nH]c3ccc(C)cc32)c1=O
  Potency: inconclusive: 89.1 µM [inhibitor, partial curve, poor fit]

Remaining list, next part

SMILES | Potency
COc1ccc(-c2cc(C(=O)N3CCC(C(N)=O)CC3)c3ccccc3n2)cc1OC | inconclusive: 5.01 µM [inhibitor, full curve, poor fit]
COc1ccc2c(C)c(CC(=O)N(C)C3CCS(=O)(=O)C3)c(=O)oc2c1 (stereo unspecified) | inconclusive: 39.8 µM [inhibitor, single point]
O=C(C1=C[C@@H](c2coc3ccccc3c2=O)C[C@@H](OCCCCO)O1)N1CCN(Cc2ccc3c(c2)OCO3)CC1 | inconclusive: 50.1 µM [inhibitor, partial curve, poor fit]
CCOc1ccccc1Nc1cc(C)nc2ccc(C)cc12 | inconclusive: 141 µM [inhibitor, single point]
O=C(Nc1nc2ccc(SC(F)F)cc2s1)c1ccc(NS(=O)(=O)c2ccc(F)c(F)c2)cc1 | inconclusive: 50.1 µM [inhibitor, partial curve, poor fit]
Cc1nn(C)c(C)c1NC(=O)COc1ccc(F)cc1Br | inconclusive: 126 µM [inhibitor, single point]
CCOC(=O)c1sc(N)c(C#N)c1CSc1nc2ccc(C)cc2[nH]1 | inconclusive: 12.6 µM [inhibitor, partial curve, poor fit]
CC(=O)SC(C[N+](=O)[O-])c1cn(C(C)=O)c2ccccc12 (stereo unspecified) | inconclusive: 35.5 µM [inhibitor, partial curve, poor fit]
O=C(NCc1ccco1)c1ccc2c(c1)N(Cc1ccc(F)cc1)C(=O)c1ccccc1S2(=O)=O | inactive
CCCCN1C(=O)C(O)(CC(=O)c2ccc(C)cc2C)c2cc(Br)ccc21 (stereo unspecified) | inactive
COc1ccc(C(=O)COC(=O)[C@@H](NS(=O)(=O)c2ccccc2)C(C)C)cc1 | inconclusive: 35.5 µM [inhibitor, single point]
CC(C1CC1)N(Cc1ccccc1)C(=S)Nc1ccccc1Cl (stereo unspecified) | inconclusive: 35.5 µM [inhibitor, partial curve]
O=C1C=CC(=O)N1Nc1ccc(Br)cc1 | inactive
CC(C)(C)OC(=O)N1CCCC(C(=O)Nc2cccc(C(=O)NCCCCc3ccccc3)c2)C1 (stereo unspecified) | inconclusive: 28.2 µM [inhibitor, single point]
COc1cc(NC(=O)c2ccc(N3C(=O)C(C)CS3(=O)=O)cc2)cc(OC)c1OC (stereo unspecified) | inactive
Cn1nnnc1SCc1ccc(F)cc1 | inactive
CCN1CCCc2cc(CN(CCN3CCOCC3)C(=S)Nc3ccc(OC)c(Cl)c3)ccc21 | inactive
O=C(CSc1ccc2nnc(-c3ccc(F)cc3)n2n1)NCc1ccco1 | inconclusive: 44.7 µM [inhibitor, partial curve, poor fit]
Cc1ccc2c(c1)[nH]c1c(=O)n(CCN3CCCCC3)cnc12 | inconclusive: 6.31 µM [inhibitor, full curve]
S=C(NCc1ccccc1)N1CCN(c2cccc(Cl)c2)CC1 | inconclusive: 56.2 µM [inhibitor, partial curve, poor fit]
Cc1noc(/C=C/c2ccccc2F)c1S(=O)(=O)N1CCC(C(=O)NCC(C)c2ccccc2)CC1 (stereo unspecified) | inactive
CCNC(=S)N/N=C(/C)c1cccc(F)c1 | inconclusive: 63.1 µM [inhibitor, partial curve, poor fit]

SMILES | Potency
COc1ccc(N(Cc2ccccc2)C(=O)CSc2nnc(Cn3nnc4ccccc43)o2)cc1 | inactive
CC(=O)c1ccc(-c2ccc(C=O)o2)cc1 | inconclusive: 35.5 µM [inhibitor, partial curve, poor fit]
CCOc1ccc(/C=N/NC(=O)NC23CC4CC(CC(C4)C2)C3)cc1O | inconclusive: 56.2 µM [inhibitor, partial curve, poor fit]
CCOc1nc(NCc2ccco2)nc(Nc2ccc(OC)cc2)n1 | inactive
O=C(C1=C[C@H](c2ccc3c(c2)OCO3)C[C@H](OCc2ccc(CO)cc2)O1)N1CCN(Cc2ccc3c(c2)OCO3)CC1 | inactive
CC(C)c1ccc(C(=O)NC(=S)NCc2cccnc2)cc1 | inconclusive: 50.1 µM [inhibitor, partial curve, poor fit]
CC(C)Oc1ccccc1NC(=O)CSc1nccn1C | inactive
CC(=O)Nc1ccccc1-c1c(C)nn2c1N(C(=O)c1ccc(Oc3ccccc3)cc1)CCC2 | inconclusive: 89.1 µM [inhibitor, partial curve, poor fit]
OCCCn1c(-c2ccc(F)cc2)csc1=Nc1ccc(F)cc1 | inconclusive: 56.2 µM [inhibitor, partial curve, poor fit]
Cc1ccc(-c2ccccc2NC(=O)CS(=O)CC(=O)Nc2ccc(C)c(Cl)c2)o1 (stereo unspecified) | active: 39.8 µM
Cc1ccc2c(C(=O)NCc3ccccc3C(F)(F)F)cc(NC(=O)C(C)C)cc2n1 | inactive
CN1CCCC(C(=O)C(C#N)c2ccccc2)C1 (stereo unspecified) | inconclusive: 35.5 µM [inhibitor, single point]
O=C(Oc1cccc(OC(=O)c2ccc(Cl)cc2Cl)c1)c1ccc(Cl)cc1Cl | inconclusive: 50.1 µM [inhibitor, single point]
C#CCn1c(=O)n(-c2cccc(Cl)c2C)c(=O)c2c3c(sc21)CN(C(C)=O)CC3 | inconclusive: 35.5 µM [inhibitor, single point]
O=C1OCC(CO)(CO)N=C1NNc1ccccc1[N+](=O)[O-] | active: 11.2 µM
CCN(CC)c1ccc(-c2c(C#N)c(N)nc(OC)c2C#N)cc1 | inactive
O=[S+]([O-])(c1ccc(Cl)cc1)c1nnn2c1nc(N1CCC(F)CC1)c1ccccc12 | inconclusive: 8.91 µM [inhibitor, full curve, poor fit]
CN(C)c1ccc(C(=O)N2CCNC(=O)C2CC(=O)Nc2ccc(F)cc2)cc1 (stereo unspecified) | inconclusive: 44.7 µM [inhibitor, partial curve, poor fit]
Cc1ccc(C)c(N2CCN(CCCNC(=O)c3cnn(-c4ccc(F)cc4)c3C3CCN(C(=O)OC(C)(C)C)CC3)CC2)c1 | inconclusive: 56.2 µM [inhibitor, partial curve, poor fit]
CCOC(=O)C1=CCN(S(=O)(=O)c2ccc(F)cc2)C1c1ccc(C)cc1 (stereo unspecified) | inconclusive: 112 µM [inhibitor, single point]
N#Cc1cccc(CSc2nnnn2-c2cccc(F)c2)c1 | inconclusive: 22.4 µM [inhibitor, partial curve, poor fit]
C/C(CC(C)(C)C1CCCCC1)=N\NC(N)=S | inconclusive: 44.7 µM [inhibitor, partial curve, poor fit]
